From patent publication US10322114B2 (Above and Beyond NB LLC, priority 2017, dated 2019)

Tests used:
in vivo = settings: Mongrel, dog, 0.1 mg/hour, elimination half-life of riluzole from plasma, dog #1205, after 3 weeks continuous IT infusion 0.1 mg/hour
[1] = dog, IT infusion 0.2 mg/hour plus 50 mg oral tablet twice daily, 5 days
Experimental: Observations for morbidity, mortality, injury, and the availability of food and water were conducted twice daily for all animals.

[2] = 48 hours or 1 week
[3] = oral 1.3 mg/kg BID 14 days versus IT 0.25 mg/hour 5 days; higher in oral

Nc1nc2ccc(OC(F)(F)F)cc2s1 [Riluzole, 2-Amino-6-(trifluoromethoxy)benzothiazole]
half-life (in vivo): 14 h
distribution in the brain [1]: found throughout the brain
biodistribution in the spinal cord ([1]; highest levels around the catheter tip): good biodistribution throughout the spinal cord
form change of undissolved riluzole (XRPD) ([2]; 5% and 1% HP-β-CD, 5° C. and 40° C.): No form change
crystal form change of undissolved riluzole (XRPD) ([2]; any concentration of HP-β-CD, room temperature): no crystal form change
riluzole accumulation in brain tissue, oral-treated compared to IT-treated dogs [3]: approximately 700 fold
